The list shows a part of the results. The main result of the screen is listed elsewhere. These columns were measured beside it and carry no call. Compounds called inactive in the main read-out are mostly missing here. Potencies come from curve fits of mixed quality, noted in brackets.
Experiment: qHTS Assay for Lipid Storage Modulators in Drosophila S3 Cells;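 on cell number change: cells counted by Cell Tracker Red CMTPX staining in the red channel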
Conditions: BODIPY lipid droplet fluorescence, 18-24 h; for cell number change: measured here: cell count max response, cells fed with added oleic acid
Summary of the method: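 Drosophila S3 cells loaded with oleic acid (400 uM, as added) and compounds at several concentrations; lipid droplets imaged by 488-nm laser-scanning cytometry, 500–530 nm intensity and object ratio to cell channel. Percent activity normalized to 20 uM Triacsin C.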

[1] = measured here: lipid fluorescence (Fed channel) AC50, cells fed with added oleic acid
[2] = measured here: cell number channel AC50, cells fed with added oleic acid

Structure (SMILES) | cell number change [%] | AC50 [1] | AC50 [2]
Cc1ccccc1N1CCN(C2=NC(=O)/C(=C/c3cn[nH]c3-c3ccccc3)S2)CC1 | 1.27 |  | 
COCCn1nnnc1C(c1ccc(OC)c(OC)c1)N1CCc2ccccc21 (centres undefined) | 10.9 | 5.17 µM [rising, partial curve] | 
O=[N+]([O-])c1cccc(Nc2c3ccccc3nc3ccccc23)c1 | -18 | 32.6 µM [falling, single point] | 
CC1(C)C(=O)Nc2ccccc2N1C(=O)COc1cc(Cl)ccc1Cl | 5.23 |  | 
Cc1nc(SC(C(N)=O)c2ccccc2)c(C#N)c(C)c1C (centres undefined) | 16.5 |  | 
COc1ccc(C(C)C)cc1S(=O)(=O)NCc1ccccn1 | -0.712 | 0.103 µM [falling, single point] | 
CCCCCCCCCCn1c2c(c(=N)c3c1CCC3)CCC2 | -82.6 |  | 6.51 µM [falling, partial curve, poor fit]
CC1=CC(=O)C=C(C)C1=NOS(=O)(=O)c1ccccc1 | -139 | 9.2 µM [falling, partial curve] | 11.6 µM [falling, partial curve]
Cc1ccc(NC(=O)COC(=O)c2cc(Cl)ccc2[N+](=O)[O-])c(C)c1 | 9.67 |  | 
O=C(COc1cccc2c1CCNC2=O)Nc1cccc(F)c1 | -2.21 |  | 
CC(C(=O)O)N1C(=O)c2cccc3cccc1c23 (centres undefined) | -16.2 | 18.4 µM [falling, partial curve] | 
CN1C/C(=C\c2ccc(N3CCOCC3)cc2)C(=O)/C(=C/c2ccc(N3CCOCC3)cc2)C1 |  | 11.6 µM [falling, partial curve] | 
Cc1ccnc(NC(=O)c2ccc(S(=O)(=O)NCc3ccco3)cc2)c1 | 28.9 | 2.91 µM [rising, full curve] | 
NC(=O)Cn1c2[n+](c3ccccc31)CC(O)CS2 (centres undefined) | -101 |  | 29.1 µM [falling, partial curve]
C=CCNC(=O)c1c2c(nc3ccccc13)-c1ccccc1CC2 | 13.2 |  | 
CCc1nc2ccccc2n1Cc1ccc(F)cc1 | 3.3 | 4.61 µM [falling, single point] | 
CCCCCCC(=O)N(O)C1CC(=O)N(c2ccc(Cl)cc2)C1=O (centres undefined) | -59.7 | 16.4 µM [falling, single point] | 20.6 µM [falling, single point]
Cc1cccc(CS(=O)(=O)c2ncc(Cl)c(C(=O)Nc3ccc(F)cc3)n2)c1 | 19.8 | 0.58 µM [falling, single point] | 6.51 µM [falling, single point]
CCc1c(C)nc(N)n2c(SCC(=O)NC3CCCCC3)nnc12 |  | 16.4 µM [falling, partial curve, poor fit] | 
CCCN1CCN(C(=O)c2ccc(-c3ccc([N+](=O)[O-])cc3)o2)CC1 | 15.5 | 6.51 µM [falling, single point] | 0.92 µM [falling, full curve]

Structure (SMILES) | cell number change [%] | AC50 [1] | AC50 [2]
COc1cc(-c2cc(C(=O)Nc3c(Cl)cc(Cl)cc3Cl)c3ccccc3n2)cc(OC)c1OC |  | 32.6 µM [rising, single point] | 
COc1ccc(NC(=O)CSc2nnc3ccc(-c4cccnc4)nn23)cc1OC | 6.23 | 5.17 µM [falling, single point] | 
COc1ccc(C2SCC(=O)N2CCCN(C)C)cc1 (centres undefined) | 31.9 |  | 32.6 µM [rising, single point]
Cc1ccc(CN2CCN(/N=C/c3ccccc3)CC2)cc1 | -18.6 | 0.00411 µM [falling, full curve, poor fit] | 
O=C(O)C1CCN1C1CCCCC1 (centres undefined) | -27.1 | 3.66 µM [falling, full curve] | 
Cc1nnc(C)n1N | -21 | 0.731 µM [falling, full curve] | 
N#CCC(=O)Nc1ccc(C(=O)OCC(=O)NNC(=O)c2ccc(Cl)cc2)cc1 | 0.838 | 0.731 µM [falling, full curve, poor fit] | 
O=C(O)c1[nH]c2ccccc2c1C(c1cc(Br)ccc1O)c1c(C(=O)O)[nH]c2ccccc12 | -13.2 |  | 
COC(=O)c1ccc(NC(=O)CS(=O)(=O)Cc2ccccc2)cc1 | -12.8 |  | 
NCCNC(=O)Cc1cccc(NC(=O)Cc2ccc(Nc3ncnc4c3ncn4[C@@H]3O[C@H](CO)[C@@H](O)[C@H]3O)cc2)c1 | -19 | 5.8 µM [falling, full curve, poor fit] | 
Cc1ccc(C)c(S(=O)(=O)NCCC(=O)N2CCCC(C(N)=O)C2)c1 (centres undefined) | -1.82 |  | 
CCOc1ccccc1NC(=O)CN(c1ccc(OC)cc1)S(=O)(=O)c1c(C)noc1C | -4.76 | 0.461 µM [falling, single point] | 
Cc1noc(C)c1COC(=O)COc1ccc2c(C)cc(=O)oc2c1 | 15.9 | 0.82 µM [rising, full curve] | 0.00517 µM [rising, full curve, poor fit]
S=C(NCCN1CCOCC1)N/N=C/c1c2ccccc2cc2ccccc12 | 32.4 | 2.91 µM [rising, partial curve] | 1.84 µM [rising, full curve]
Cc1cccc(OCc2nnc(SCC(=O)Nc3ccc(C)c(Cl)c3)o2)c1 | 2.97 | 0.651 µM [falling, single point] | 
CC(=O)N1CCc2cc(S(=O)(=O)CCC(=O)NCCc3ccccc3)ccc21 | 3.42 | 20.6 µM [rising, single point] | 
CCCn1c(NC(=O)c2ccccc2Br)nc2ccccc21 | -21.4 | 29.1 µM [falling, single point] | 
Cc1nn(C)c(C)c1Sc1ccccc1N |  | 0.0651 µM [falling, full curve] | 
CCOc1ccc(S(=O)(=O)N2CCCC(C(=O)Nc3cc(C)cc(C)c3)C2)cc1 (centres undefined) | 38.7 | 29.1 µM [rising, single point] | 14.6 µM [rising, partial curve, poor fit]
O=C(Nc1cc(S(=O)(=O)Nc2ccc(Cl)cc2)ccc1O)c1ccc(S(=O)(=O)N2CCCCCC2)cc1 | 30.8 | 0.00517 µM [falling, full curve, poor fit] | 9.2 µM [rising, single point]

Structure (SMILES) | cell number change [%] | AC50 [1] | AC50 [2]
Cc1ccc(CN2CC(C(=O)Nc3nnc(SCc4c(Cl)cccc4Cl)s3)CC2=O)cc1 (centres undefined) | -34.8 |  | 20.6 µM [falling, single point]
O=C(Nc1cccc(O)c1)c1cc(-c2ccco2)on1 | -22.6 | 0.651 µM [falling, single point] | 0.146 µM [falling, full curve, poor fit]
O=C(COc1ncnc2ccccc12)c1ccc2c(c1)OCCO2 | -34.6 | 0.0517 µM [falling, full curve, poor fit] | 32.6 µM [falling, partial curve, poor fit]
Cc1ccc(C(=O)O)cc1N1C(=O)c2cccc3cc(Br)cc(c23)C1=O | -18 | 0.184 µM [falling, full curve, poor fit] | 
O=C(Nc1ccc(F)cc1)Nc1nnc(COc2ccccc2F)s1 | -34.8 | 17.8 µM [falling, partial curve, poor fit] | 20 µM [falling, partial curve, poor fit]
C/C(=N\NC(=O)C1(C)CC1(Br)Br)c1cccc(NC(=O)c2ccc(C)o2)c1 (centres undefined) | -48.8 | 3.66 µM [falling, full curve, poor fit] | 18.4 µM [falling, single point]
CCCc1ccc(Oc2cc(NN3CCCCC3)c([N+](=O)[O-])cc2[N+](=O)[O-])cc1 | 15 |  | 
COc1ccc(/C=C/C(=O)OC2CCCCC2CN(C)C)cc1 (centres undefined) | 0.106 | 0.517 µM [falling, single point] | 
COC(=O)C(Nc1ccccc1Cl)(c1cc(C)c(O)c(C)c1)C(F)(F)F (centres undefined) | -87.8 | 11.6 µM [falling, single point] | 29.1 µM [falling, single point]
COc1ccc(S(=O)(=O)Cc2ccc(C(=O)N3CCN(c4ccccc4)CC3)o2)cc1 | 76.5 |  | 29.1 µM [rising, single point]
COC(=O)c1ccc(/C=C2\Oc3ccccc3NC2=O)cc1 | 0.173 |  | 
CS(=O)(=O)Nc1cccc(C(=O)OCCCOc2ccc(F)cc2)c1 | -29.7 |  | 
COc1ccc(-n2c3c(c(=O)[nH]c2=O)C(NC(C)=O)(C(F)(F)F)C(=O)N3)cc1 (centres undefined) | -0.228 |  | 1.46 µM [rising, partial curve, poor fit]
Cc1noc(C)c1COC(=O)c1cc2c(C)nn(-c3ccc(F)cc3)c2s1 | -18.9 | 8.2 µM [falling, partial curve, poor fit] | 0.461 µM [falling, full curve, poor fit]
Cc1ccc(C(=O)Nc2ccc(C(=O)O)cc2)cc1S(=O)(=O)Nc1cccc([N+](=O)[O-])c1 | 23.8 | 0.517 µM [rising, full curve] | 
O=C(Cn1nc(Cc2cccnc2)c2ccccc2c1=O)NCc1ccc(F)cc1 |  | 0.00411 µM [rising, full curve, poor fit] | 
CC1(C)CC[C@]2(C(=O)O)CC[C@]3(C)C(=CCC4[C@@]5(C)CC[C@H](O)C(C)(C)C5CC[C@]43C)C2C1 (some centres undefined) | 25.8 | 16.4 µM [rising, single point] | 
COc1ccc(OC)c(-c2cc(C(=O)N/N=C(\C)c3cccnc3)c3ccccc3n2)c1 | -30.2 | 0.58 µM [rising, single point] | 0.82 µM [rising, partial curve]

Ordered by number of heavy atoms (largest number first): some entries from above
Structure (SMILES) | cell number change [%] | AC50 [1] | AC50 [2]
NCCNC(=O)Cc1cccc(NC(=O)Cc2ccc(Nc3ncnc4c3ncn4[C@@H]3O[C@H](CO)[C@@H](O)[C@H]3O)cc2)c1 | -19 | 5.8 µM [falling, full curve, poor fit] | 
Cc1ccc(C(=O)Nc2ccc(C(=O)O)cc2)cc1S(=O)(=O)Nc1cccc([N+](=O)[O-])c1 | 23.8 | 0.517 µM [rising, full curve] | 
CCCCCCC(=O)N(O)C1CC(=O)N(c2ccc(Cl)cc2)C1=O (centres undefined) | -59.7 | 16.4 µM [falling, single point] | 20.6 µM [falling, single point]

Reference: PubChem BioAssay AID2685 (National Center for Advancing Translational Sciences (NCATS), 2010)
